Experimental data taken from article PMC8062582.
These are yes or no findings as the source states them, for the method shown. In cells and extracts the contact can be indirect. Some entries that bind do so weakly or less than the wild type.

By UniProt entry, the sequences of proteins in these tests, tags left out.
UniProt O60260: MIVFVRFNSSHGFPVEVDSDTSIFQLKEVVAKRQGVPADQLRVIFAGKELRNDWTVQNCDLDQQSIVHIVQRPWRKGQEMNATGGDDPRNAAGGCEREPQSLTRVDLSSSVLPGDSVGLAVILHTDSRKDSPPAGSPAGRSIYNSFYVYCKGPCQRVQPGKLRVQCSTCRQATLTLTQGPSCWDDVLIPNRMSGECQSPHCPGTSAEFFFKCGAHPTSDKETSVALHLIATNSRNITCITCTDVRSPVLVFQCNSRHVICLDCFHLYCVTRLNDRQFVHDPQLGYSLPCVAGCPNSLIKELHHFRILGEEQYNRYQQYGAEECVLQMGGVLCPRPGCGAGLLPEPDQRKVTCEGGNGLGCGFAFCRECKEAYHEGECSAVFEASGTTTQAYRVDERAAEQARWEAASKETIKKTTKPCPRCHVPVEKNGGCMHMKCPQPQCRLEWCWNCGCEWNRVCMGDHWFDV

How the values were obtained:
[1] = target: Myc-tagged BRCA1, full length (UniProt P38398); test: co-IP; nuclear extracts of HEK293T cells transduced with Myc-BRCA1 and FLAG-Parkin expression vectors, treated with MG132; anti-Myc antibody 16 h, Protein G magnetic beads; blots for Myc-BRCA1, Ub and FLAG-Parkin
[2] = target: Myc-tagged BRCA1, full length (UniProt P38398); test: co-IP; Myc-BRCA1 (full length or deletion mutants) co-expressed with FLAG-Parkin (Wt or deletion mutants); anti-Myc antibody, Protein G magnetic beads; blot for FLAG-Parkin; whole-cell lysate or nuclear extract not told
Myc-BRCA1 Δ1-167 = Myc-BRCA1 Δ1-167 (UniProt P38398); test: as above

Measured: binding

wild type FLAG-tagged Parkin (from UniProt O60260 1-465) (enzyme)
binds: [1] | [2] | Myc-BRCA1 Δ1-167
